# Laboratory results as given in the supplement of paper PMC12819154, “High-throughput peptide-centric local stability assay extends protein–ligand identification to membrane proteins, tissues and bacteria” (Nature Structural & Molecular Biology, 2025).
# The chains behind the UniProt entries cited, without tags or fusion partners. Where a name states a change or a piece, a line headed by the entry shows the natural chain unless it says otherwise.
# UniProt Q8IXJ9: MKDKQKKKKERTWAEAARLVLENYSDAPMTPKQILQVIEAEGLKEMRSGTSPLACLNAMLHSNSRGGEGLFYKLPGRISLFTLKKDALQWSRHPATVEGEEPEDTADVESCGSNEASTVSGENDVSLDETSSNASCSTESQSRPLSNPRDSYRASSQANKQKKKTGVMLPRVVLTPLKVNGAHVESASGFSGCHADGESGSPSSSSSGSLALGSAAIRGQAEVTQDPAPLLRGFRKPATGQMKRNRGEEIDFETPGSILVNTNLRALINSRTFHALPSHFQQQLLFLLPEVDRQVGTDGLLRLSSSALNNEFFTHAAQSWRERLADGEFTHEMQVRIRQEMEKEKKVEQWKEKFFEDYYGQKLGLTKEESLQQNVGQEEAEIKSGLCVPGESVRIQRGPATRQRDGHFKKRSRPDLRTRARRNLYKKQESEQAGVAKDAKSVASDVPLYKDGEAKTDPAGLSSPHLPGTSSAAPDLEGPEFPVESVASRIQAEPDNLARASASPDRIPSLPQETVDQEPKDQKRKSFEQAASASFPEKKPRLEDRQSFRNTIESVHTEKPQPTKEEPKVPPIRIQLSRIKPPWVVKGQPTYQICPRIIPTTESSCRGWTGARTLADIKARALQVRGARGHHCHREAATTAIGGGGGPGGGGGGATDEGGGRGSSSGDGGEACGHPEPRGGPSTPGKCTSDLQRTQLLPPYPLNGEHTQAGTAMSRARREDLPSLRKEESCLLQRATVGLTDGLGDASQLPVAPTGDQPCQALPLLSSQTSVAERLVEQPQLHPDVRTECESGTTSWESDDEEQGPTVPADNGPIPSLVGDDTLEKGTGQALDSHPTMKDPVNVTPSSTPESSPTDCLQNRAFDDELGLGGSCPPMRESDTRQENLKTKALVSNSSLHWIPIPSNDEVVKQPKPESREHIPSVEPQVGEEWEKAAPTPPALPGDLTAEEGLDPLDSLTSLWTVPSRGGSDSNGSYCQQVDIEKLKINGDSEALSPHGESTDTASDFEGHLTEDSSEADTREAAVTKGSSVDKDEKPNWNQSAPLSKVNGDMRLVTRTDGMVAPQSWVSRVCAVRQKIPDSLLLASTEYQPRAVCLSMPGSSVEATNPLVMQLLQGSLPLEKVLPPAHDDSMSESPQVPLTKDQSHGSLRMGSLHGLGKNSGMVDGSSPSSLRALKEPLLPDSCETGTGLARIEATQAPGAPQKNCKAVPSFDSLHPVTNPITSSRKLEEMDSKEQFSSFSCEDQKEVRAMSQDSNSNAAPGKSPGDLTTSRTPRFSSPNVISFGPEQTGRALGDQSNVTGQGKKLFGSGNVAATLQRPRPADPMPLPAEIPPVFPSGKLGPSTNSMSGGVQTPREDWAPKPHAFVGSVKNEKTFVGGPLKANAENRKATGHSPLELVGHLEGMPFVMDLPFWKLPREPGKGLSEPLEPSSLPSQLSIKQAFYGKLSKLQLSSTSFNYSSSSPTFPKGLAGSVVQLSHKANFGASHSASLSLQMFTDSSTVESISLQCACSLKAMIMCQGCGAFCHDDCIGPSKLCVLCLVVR
# UniProt Q8IYN6: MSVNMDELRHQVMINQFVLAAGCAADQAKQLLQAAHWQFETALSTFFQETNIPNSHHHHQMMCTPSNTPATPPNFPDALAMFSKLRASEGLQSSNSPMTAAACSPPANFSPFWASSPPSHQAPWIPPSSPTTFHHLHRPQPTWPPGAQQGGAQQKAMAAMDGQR
# UniProt Q86VQ3: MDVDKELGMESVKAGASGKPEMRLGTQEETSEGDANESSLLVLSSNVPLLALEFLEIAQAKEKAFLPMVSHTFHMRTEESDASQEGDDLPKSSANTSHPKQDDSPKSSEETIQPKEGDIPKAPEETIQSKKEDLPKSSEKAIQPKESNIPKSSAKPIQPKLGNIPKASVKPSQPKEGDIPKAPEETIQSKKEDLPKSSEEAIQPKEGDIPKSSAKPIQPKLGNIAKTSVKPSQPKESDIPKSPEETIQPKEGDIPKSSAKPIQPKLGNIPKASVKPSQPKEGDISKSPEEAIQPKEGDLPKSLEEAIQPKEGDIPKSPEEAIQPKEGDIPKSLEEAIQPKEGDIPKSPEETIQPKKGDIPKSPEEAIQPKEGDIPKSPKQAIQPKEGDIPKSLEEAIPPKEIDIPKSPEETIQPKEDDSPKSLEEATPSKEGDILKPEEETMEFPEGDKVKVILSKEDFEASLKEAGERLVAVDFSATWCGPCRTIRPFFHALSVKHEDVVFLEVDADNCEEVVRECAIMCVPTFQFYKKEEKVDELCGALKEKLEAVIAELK
# UniProt Q86Y37: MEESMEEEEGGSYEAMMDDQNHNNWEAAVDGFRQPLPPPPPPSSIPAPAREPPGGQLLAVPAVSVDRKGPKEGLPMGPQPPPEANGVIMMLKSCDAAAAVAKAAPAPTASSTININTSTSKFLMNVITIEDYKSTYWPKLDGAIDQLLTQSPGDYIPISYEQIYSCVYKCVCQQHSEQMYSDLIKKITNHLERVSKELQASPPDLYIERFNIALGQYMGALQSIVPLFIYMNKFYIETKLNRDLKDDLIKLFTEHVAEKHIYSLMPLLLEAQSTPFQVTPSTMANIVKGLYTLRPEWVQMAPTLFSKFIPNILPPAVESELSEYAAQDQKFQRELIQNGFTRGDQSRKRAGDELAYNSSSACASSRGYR
# UniProt Q8IWI9: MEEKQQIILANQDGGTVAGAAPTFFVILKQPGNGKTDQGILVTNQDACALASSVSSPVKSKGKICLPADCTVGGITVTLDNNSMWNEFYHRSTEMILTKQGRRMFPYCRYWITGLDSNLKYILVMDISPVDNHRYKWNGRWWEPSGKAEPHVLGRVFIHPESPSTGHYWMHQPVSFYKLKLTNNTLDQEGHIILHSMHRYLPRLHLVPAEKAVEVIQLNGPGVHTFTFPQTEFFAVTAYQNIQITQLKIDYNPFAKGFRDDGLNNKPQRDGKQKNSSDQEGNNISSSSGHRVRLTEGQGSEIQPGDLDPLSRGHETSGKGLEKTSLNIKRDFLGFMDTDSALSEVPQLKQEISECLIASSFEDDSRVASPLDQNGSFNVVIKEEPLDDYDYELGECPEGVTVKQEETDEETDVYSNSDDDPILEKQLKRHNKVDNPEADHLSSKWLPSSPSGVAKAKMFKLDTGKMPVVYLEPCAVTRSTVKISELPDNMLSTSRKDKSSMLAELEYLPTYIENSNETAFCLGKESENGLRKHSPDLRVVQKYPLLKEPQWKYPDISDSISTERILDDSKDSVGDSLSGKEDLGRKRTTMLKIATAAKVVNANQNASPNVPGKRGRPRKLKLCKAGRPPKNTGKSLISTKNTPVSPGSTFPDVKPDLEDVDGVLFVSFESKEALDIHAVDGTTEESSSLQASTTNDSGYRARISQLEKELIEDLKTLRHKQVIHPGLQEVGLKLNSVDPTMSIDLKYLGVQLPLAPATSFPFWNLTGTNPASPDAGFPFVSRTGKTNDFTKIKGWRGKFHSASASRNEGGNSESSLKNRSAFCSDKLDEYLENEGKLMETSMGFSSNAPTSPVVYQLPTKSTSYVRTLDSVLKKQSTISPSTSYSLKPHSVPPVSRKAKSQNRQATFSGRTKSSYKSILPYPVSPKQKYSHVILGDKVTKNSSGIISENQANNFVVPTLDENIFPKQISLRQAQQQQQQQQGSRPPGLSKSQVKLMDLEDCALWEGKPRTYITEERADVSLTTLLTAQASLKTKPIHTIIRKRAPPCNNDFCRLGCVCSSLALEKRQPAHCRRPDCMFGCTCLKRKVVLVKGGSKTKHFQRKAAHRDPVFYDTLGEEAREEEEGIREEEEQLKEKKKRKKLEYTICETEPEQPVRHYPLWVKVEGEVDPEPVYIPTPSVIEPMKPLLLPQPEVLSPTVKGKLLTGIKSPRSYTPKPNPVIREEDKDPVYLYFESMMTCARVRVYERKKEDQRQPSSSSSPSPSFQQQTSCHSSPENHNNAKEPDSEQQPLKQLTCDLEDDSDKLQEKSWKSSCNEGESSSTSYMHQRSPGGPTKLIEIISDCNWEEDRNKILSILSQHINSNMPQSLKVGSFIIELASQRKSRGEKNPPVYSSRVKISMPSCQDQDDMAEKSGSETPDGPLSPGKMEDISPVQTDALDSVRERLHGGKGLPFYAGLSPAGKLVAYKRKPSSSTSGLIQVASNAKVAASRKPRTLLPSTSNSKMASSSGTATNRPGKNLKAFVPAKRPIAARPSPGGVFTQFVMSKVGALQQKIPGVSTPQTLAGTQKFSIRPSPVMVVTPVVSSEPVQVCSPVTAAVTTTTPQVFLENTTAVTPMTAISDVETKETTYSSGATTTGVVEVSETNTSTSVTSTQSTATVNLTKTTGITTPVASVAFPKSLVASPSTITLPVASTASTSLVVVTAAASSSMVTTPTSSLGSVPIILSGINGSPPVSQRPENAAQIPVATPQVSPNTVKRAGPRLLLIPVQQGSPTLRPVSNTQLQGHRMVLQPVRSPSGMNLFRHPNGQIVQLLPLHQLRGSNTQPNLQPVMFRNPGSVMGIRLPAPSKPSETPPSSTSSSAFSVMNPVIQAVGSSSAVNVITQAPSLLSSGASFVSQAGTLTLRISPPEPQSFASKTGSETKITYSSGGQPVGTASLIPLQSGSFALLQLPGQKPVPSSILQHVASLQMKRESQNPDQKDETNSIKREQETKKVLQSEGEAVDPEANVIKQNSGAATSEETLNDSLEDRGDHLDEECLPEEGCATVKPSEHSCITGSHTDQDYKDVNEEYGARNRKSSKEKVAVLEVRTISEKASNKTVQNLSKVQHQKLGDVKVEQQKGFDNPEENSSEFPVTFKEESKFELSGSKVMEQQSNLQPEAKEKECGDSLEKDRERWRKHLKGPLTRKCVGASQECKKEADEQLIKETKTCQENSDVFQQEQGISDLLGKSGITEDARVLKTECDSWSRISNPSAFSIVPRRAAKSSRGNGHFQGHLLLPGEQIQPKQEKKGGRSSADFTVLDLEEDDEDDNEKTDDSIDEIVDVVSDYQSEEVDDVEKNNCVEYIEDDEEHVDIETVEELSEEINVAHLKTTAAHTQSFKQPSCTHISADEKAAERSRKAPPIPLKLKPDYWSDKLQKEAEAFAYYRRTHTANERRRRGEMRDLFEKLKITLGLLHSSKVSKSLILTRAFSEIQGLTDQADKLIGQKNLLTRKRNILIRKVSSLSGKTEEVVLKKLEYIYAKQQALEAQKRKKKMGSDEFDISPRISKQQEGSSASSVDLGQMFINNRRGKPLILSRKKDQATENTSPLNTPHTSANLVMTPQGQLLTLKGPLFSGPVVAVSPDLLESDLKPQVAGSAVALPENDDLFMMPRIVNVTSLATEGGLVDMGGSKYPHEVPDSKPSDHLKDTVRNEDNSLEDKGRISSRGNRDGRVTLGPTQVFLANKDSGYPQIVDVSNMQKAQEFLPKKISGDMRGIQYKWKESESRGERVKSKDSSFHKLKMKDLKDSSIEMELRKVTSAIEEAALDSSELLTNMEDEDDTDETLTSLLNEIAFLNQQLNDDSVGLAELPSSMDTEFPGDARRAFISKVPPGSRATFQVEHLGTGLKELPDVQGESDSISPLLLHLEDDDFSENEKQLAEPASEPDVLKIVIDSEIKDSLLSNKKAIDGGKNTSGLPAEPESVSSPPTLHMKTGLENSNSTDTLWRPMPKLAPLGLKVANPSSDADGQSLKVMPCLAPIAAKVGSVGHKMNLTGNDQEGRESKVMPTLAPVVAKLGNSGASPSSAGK
# UniProt Q8IXQ3: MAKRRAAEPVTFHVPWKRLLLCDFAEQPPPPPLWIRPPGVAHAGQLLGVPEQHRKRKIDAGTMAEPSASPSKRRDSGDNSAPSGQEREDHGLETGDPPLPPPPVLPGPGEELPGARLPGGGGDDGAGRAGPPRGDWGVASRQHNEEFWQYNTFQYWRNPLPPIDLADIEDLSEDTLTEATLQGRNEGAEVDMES
# UniProt Q86V21: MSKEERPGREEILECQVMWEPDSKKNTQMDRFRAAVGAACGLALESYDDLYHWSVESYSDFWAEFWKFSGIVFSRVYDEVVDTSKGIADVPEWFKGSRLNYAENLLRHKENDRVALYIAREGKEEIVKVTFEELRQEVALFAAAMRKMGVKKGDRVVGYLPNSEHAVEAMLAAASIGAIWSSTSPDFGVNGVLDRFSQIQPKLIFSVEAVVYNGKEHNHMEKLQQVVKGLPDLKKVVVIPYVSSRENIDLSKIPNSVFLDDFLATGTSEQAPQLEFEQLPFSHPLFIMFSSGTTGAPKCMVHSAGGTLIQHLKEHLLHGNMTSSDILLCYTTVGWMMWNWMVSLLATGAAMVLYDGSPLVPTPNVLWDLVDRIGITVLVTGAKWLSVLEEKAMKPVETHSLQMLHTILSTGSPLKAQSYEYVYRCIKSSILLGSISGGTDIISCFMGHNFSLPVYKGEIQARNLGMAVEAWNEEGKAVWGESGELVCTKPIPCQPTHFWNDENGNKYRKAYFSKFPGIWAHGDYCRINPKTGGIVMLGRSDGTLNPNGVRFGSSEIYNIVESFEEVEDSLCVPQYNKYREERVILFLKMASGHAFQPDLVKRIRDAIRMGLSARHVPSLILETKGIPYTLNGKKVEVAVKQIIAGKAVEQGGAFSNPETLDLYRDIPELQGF
# Some of the results follow. Small differences around the control level are noise.
# Compound: Cc1nc(Nc2ncc(C(=O)Nc3c(C)cccc3Cl)s2)cc(N2CCN(CCO)CC2)n1 [dasatinib]
# Experiment: log2 fold change of tryptic peptide abundance, ligand vs vehicle (limited proteolysis) (log2 ratio); higher = more trypsin-susceptible (destabilized)
# Conditions: ligand concentration: 5 uM; sample: K562 cleared lysate
row,Target,log2 fold change
1,"PIM3 (peptide sequence: ADKESFEK, peptide start residue: 31) (UniProt Q86V86)",-0.255
2,"UniProt Q8IZL9 (peptide sequence: IADFGLAR, peptide start residue: 383)",0.00976
3,"PHF13 (peptide sequence: AKPSNFLLDR, peptide start residue: 101) (UniProt Q86YI8)",-0.305
4,"BBS7 (peptide sequence: LALIQITTSKPVR, peptide start residue: 216) (UniProt Q8IWZ6)",0.856
5,"PDSS2 (peptide sequence: INSDVQPFIK, peptide start residue: 293) (UniProt Q86YH6)",0.239
6,"ASXL1 (peptide sequence: DALQWSR, peptide start residue: 86) (UniProt Q8IXJ9)",-0.497
7,"UniProt Q8N0W3 (peptide sequence: QDLSLRPLIWAAVR, peptide start residue: 566)",-0.499
8,"UniProt Q8IYN6 (peptide sequence: AMAAMDGQR, peptide start residue: 156)",0.0371
9,"UniProt Q8IYS0 (peptide sequence: SLLPTLEK, peptide start residue: 279)",0.0964
10,"PPFIBP1 (peptide sequence: SSSLGNLKK, peptide start residue: 464) (UniProt Q86W92)",-0.301
11,"UniProt Q86XF0 (peptide sequence: MTTTSSVEGK, peptide start residue: 38)",0.0857
12,"DTX2 (peptide sequence: TASVFGTHQAFAPYNKPSLSGAR, peptide start residue: 234) (UniProt Q86UW9)",-0.168
13,"TXNDC2 (peptide sequence: SPEETIQPK, peptide start residue: 242) (UniProt Q86VQ3)",-0.498
14,"UniProt Q86UX2 (peptide sequence: TITILINKPER, peptide start residue: 743)",-0.874
15,"CACUL1 (peptide sequence: EPPGGQLLAVPAVSVDRK, peptide start residue: 51) (UniProt Q86Y37)",0.33
16,"FCHSD1 (peptide sequence: VKPAQEVK, peptide start residue: 8) (UniProt Q86WN1)",0.361
17,"FAM83A (peptide sequence: SVEGEIYCAK, peptide start residue: 222) (UniProt Q86UY5)",-0.129
18,"PARG (peptide sequence: DNFYQHNVEK, peptide start residue: 116) (UniProt Q86W56)",0.144
19,"MGA (peptide sequence: YPHEVPDSKPSDHLK, peptide start residue: 2671) (UniProt Q8IWI9)",-0.646
20,"UniProt Q8IZ26 (peptide sequence: AVTLTNGESSR, peptide start residue: 166)",-0.0576
21,"ZNF595 (peptide sequence: IFQCNTCVK, peptide start residue: 144) (UniProt Q8IYB9)",0.241
22,"KLHL7 (peptide sequence: MCVDFLK, peptide start residue: 132) (UniProt Q8IXQ5)",-0.122
23,"C9orf40 (peptide sequence: AAEPVTFHVPWKR, peptide start residue: 6) (UniProt Q8IXQ3)",-0.334
24,"AACS (peptide sequence: FSGIVFSR, peptide start residue: 68) (UniProt Q86V21)",0.525
25,"CCAR1 (peptide sequence: GYKQQLVEK, peptide start residue: 592) (UniProt Q8IX12)",0.839
26,"UniProt Q8N141 (peptide sequence: IEGQERPQEGYFSSVK, peptide start residue: 127)",-0.212
27,"FOXP4 (peptide sequence: QAILETPDR, peptide start residue: 478) (UniProt Q8IVH2)",-0.409
28,"ANKHD1 (peptide sequence: VPTHTLAMVVPPQEPDR, peptide start residue: 718) (UniProt Q8IWZ3)",0.501
29,"UniProt Q86W11 (peptide sequence: ISQLPSQDR, peptide start residue: 247)",0.25

# Two records picked at random from those above:
row,Target,log2 fold change
29,"UniProt Q86W11 (peptide sequence: ISQLPSQDR, peptide start residue: 247)",0.25
20,"UniProt Q8IZ26 (peptide sequence: AVTLTNGESSR, peptide start residue: 166)",-0.0576
